PubChem BioAssay AID1671195, Yale University – 2021

- Test: 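Regulators of LDL receptor activity judged by labelled LDL uptake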 (primary screen)
- Cell system: human Huh7 hepatoma cells
- Reagents: siRNA pool against human genes, 18 nM
- Timing: about 2 to 2.5 days of knockdown, then 8 h LDL uptake
- Challenge: DiI-labelled LDL at 30 µg/ml for 8 h, in lipoprotein-deficient serum medium
- Read-out: 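Fluorescent LDL signal imaged in cells, scaled to the plate median, robust z-score for each replicate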
- Direction: robust z-score: higher = more LDL uptake after knockdown
- Active means: 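a gene counts as active if at least two replicate z-scores exceed ±2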
The whole screen tested about 22,000 reagents; this is a random part of them. In the full data, about 1,510 (6.9%) are marked active. 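Active includes knockdowns raising or lowering LDL uptake; positive z-scores mean more uptake, negative mean less.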

no.	Gene	robust z-score, replicate 1	robust z-score, replicate 2	robust z-score, replicate 3	outcome
1	UMODL1-AS1 (GeneID 150147)	-1.04	-1.14	-1.17	inactive
2	LCK (GeneID 3932)	-0.503	0.271	0.298	inactive
3	AGXT (GeneID 189)	-2.14	-1.58	-1.74	inactive
4	SORCS1 (GeneID 114815)	1.84	1.56	-2.68	inactive
5	HSD11B2 (GeneID 3291)	-2.14	-2.91	-2.48	active
6	FAM162A (GeneID 26355)	5.06	-0.812	-0.91	inactive
7	LOC388205 (retired record) (GeneID 388205)	0.351	0.821	0.315	inactive
8	GABRB2 (GeneID 2561)	-0.624	-0.978	-0.125	inactive
9	GLCCI1 (GeneID 113263)	-1.37	-1.14	-1.12	inactive
10	MAT1A (GeneID 4143)	0.915	-0.521	-0.581	inactive
11	KNOP1 (GeneID 400506)	0.77	1.45	1.1	inactive
12	TMEM41A (GeneID 90407)	0.553	0.821	0.474	inactive
13	LOC440931 (retired record) (GeneID 440931)	0.277	-0.206	0.0377	inactive
14	CZIB (GeneID 54987)	-0.806	-0.838	-1.77	inactive
15	RSBN1 (GeneID 54665)	0.223	1.53	-0.391	inactive
16	SNX22 (GeneID 79856)	1.33	0.882	0.316	inactive
17	DST (GeneID 667)	-0.17	0.0772	-0.632	inactive
18	CDK8 (GeneID 1024)	1.82	1.82	1.21	inactive
19	SIX6 (GeneID 4990)	0.00374	0.0109	-0.347	inactive
20	LOC339162 (retired record) (GeneID 339162)	0.445	0.647	0.654	inactive
21	SHISAL1 (GeneID 85352)	0.668	1.19	2.18	inactive
22	SOX21 (GeneID 11166)	-0.137	-0.0838	-0.0849	inactive
23	LOC389162 (retired record) (GeneID 389162)	2.54	1.61	1.63	inactive
24	RPL23AP82 (GeneID 284942)	0.275	0.343	0.0309	inactive
25	LOC100288208 (GeneID 100288208)	2.28	1.62	1.13	inactive
26	TMEM63A (GeneID 9725)	0.686	0.532	-0.794	inactive
27	KTN1-AS1 (GeneID 100129075)	-0.559	-0.469	-0.866	inactive
28	LOC440384 (retired record) (GeneID 440384)	2.63	1.89	1.58	inactive
29	ABHD8 (GeneID 79575)	0.888	0.291	0.828	inactive
30	LOC401621 (retired record) (GeneID 401621)	0.0305	-1.37	-1.02	inactive
31	EPG5 (GeneID 57724)	0.126	0.424	0.659	inactive
32	AHSP (GeneID 51327)	1.13	2	1.46	inactive
33	ARL4D (GeneID 379)	-0.461	2.02	0.528	inactive
34	LOC440783 (retired record) (GeneID 440783)	0.804	0.505	0.523	inactive
35	MRFAP1L2 (GeneID 93622)	1.74	1.75	1.19	inactive
36	ZFP37 (GeneID 7539)	0.733	0.354	0.986	inactive
37	LOC389953 (retired record) (GeneID 389953)	-0.126	0.348	0.194	inactive
38	ELMOD2 (GeneID 255520)	-1.09	-1.15	-0.887	inactive
39	KCTD5 (GeneID 54442)	0.667	0.572	1.82	inactive
40	PEX10 (GeneID 5192)	1.01	1.19	1.05	inactive
41	LINC01602 (GeneID 100505477)	0.497	0.15	1.04	inactive
42	PPP1R3A (GeneID 5506)	1.29	-0.0787	1.02	inactive
43	SLCO6A1 (GeneID 133482)	-0.342	-0.678	-0.507	inactive
44	RTN4R (GeneID 65078)	1.2	-0.104	-0.285	inactive
45	MAN1C1 (GeneID 57134)	-0.6	-0.467	-1.24	inactive
46	BRD10 (GeneID 158358)	-1.06	-1.07	-0.804	inactive
47	ERMAP (GeneID 114625)	1.2	1.09	0.308	inactive
48	AXL (GeneID 558)	-0.679	-0.932	-0.888	inactive
49	CEP170P1 (GeneID 645455)	-1.66	-1.7	-1.86	inactive
50	URB2 (GeneID 9816)	1.94	1.25	0.621	inactive
51	LOC401704 (retired record) (GeneID 401704)	-1.57	-1.97	-1.84	inactive
52	LCN9 (GeneID 392399)	-1.13	-1.06	-1.13	inactive
53	WNT10A (GeneID 80326)	-0.401	-0.406	-0.637	inactive
54	TOM1L2 (GeneID 146691)	-0.208	-0.344	0.402	inactive
55	TMTC1 (GeneID 83857)	0.883	-1.42	-1.73	inactive
56	FCER1G (GeneID 2207)	-0.233	0.779	0.348	inactive
57	IL21R (GeneID 50615)	0.4	-0.21	0.193	inactive
58	OTUD7A (GeneID 161725)	-2.42	-2.26	-2.09	active
59	CFAP141 (GeneID 388701)	0.125	0.237	0.75	inactive
60	ETHE1 (GeneID 23474)	-0.517	-0.438	-0.059	inactive
61	LINC01205 (GeneID 401082)	0.123	-0.279	-0.372	inactive
62	SLC2A6 (GeneID 11182)	-0.347	-0.625	-0.262	inactive
63	KCNK9 (GeneID 51305)	-0.496	0.0997	-0.596	inactive
64	SPG11 (GeneID 80208)	1.63	1.15	0.706	inactive
65	TBX6 (GeneID 6911)	-0.00332	0.173	0.381	inactive
66	DLK1 (GeneID 8788)	-1.57	-1.48	-2.12	inactive
67	RRS1 (GeneID 23212)	3.27	1.61	1.02	inactive
68	C4orf46 (GeneID 201725)	0.111	0.242	0.0468	inactive
